PubChem BioAssay AID2283125 (EPA ToxCast)
The shares of active, inactive and inconclusive entries below differ from those in the screen. Potencies beside an inconclusive call are fits to weak or partial responses and may not hold up. Activity calls are given as the source filed them. Rule for the calls: active = hit-call score of the fitted dose curve at least 0.9, where 1 is the maximum; inconclusive = response in the unintended direction; inactive = score below 0.9.

Sequences of proteins named here, by UniProt entry; tags and fusion partners are left off.
UniProt P00519, whole entry, looked up: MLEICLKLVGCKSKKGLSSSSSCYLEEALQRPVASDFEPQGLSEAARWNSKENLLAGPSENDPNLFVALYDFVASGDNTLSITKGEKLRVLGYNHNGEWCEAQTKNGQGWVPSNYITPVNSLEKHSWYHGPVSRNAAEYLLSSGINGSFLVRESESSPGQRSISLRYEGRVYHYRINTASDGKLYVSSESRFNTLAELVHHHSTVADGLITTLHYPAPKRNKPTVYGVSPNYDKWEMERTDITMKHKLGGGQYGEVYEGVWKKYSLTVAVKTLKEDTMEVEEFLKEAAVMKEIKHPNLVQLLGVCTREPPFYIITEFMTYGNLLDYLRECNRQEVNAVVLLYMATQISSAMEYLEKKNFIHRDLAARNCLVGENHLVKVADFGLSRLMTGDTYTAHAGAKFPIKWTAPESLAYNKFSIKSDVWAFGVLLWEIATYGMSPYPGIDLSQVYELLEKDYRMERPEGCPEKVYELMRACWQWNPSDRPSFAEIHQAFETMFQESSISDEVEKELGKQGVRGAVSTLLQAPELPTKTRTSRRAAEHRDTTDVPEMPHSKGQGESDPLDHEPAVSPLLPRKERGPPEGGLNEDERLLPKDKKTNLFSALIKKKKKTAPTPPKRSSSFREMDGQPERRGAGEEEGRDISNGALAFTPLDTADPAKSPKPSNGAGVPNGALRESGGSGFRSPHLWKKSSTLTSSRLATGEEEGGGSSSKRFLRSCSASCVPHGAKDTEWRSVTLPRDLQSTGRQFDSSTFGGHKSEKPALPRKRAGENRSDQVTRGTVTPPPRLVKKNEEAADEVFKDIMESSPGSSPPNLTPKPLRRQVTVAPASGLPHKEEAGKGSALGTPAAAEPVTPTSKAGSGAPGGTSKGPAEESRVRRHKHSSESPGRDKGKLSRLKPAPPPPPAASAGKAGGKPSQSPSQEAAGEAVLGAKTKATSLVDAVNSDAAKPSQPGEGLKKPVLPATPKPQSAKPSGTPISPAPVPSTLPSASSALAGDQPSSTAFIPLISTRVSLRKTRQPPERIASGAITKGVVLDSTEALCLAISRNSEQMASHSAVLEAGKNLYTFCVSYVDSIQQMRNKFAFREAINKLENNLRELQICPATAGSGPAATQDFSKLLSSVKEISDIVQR

Target: Tyrosine-protein kinase ABL1 (Homo sapiens) (UniProt P00519)
Experiment: NVS_ENZ_hAbl: NovaScreen (NVS) Enzymatic Assay for human ABL proto-oncogene 1, non-receptor tyrosine kinase
Experimental: NVS_ENZ_hAbl is a biochemical, single-readout assay that uses extracted gene-proteins in a cell-free assay. Measurements were taken 1 hour after chemical dosing in a 96-well plate.NVS_ENZ_hAbl is one of one assay component(s) measured or calculated from the NVS_ENZ_hAbl assay. It is designed to make measurements of enzyme activity, a form of enzyme reporter, as detected with fluorescence intensity signals by Fluorescence and electrophoretic mobility shift technology.Data from the assay component NVS_ENZ_hAbl was analyzed into 1 assay endpoint. This assay endpoint, NVS_ENZ_hAbl, was analyzed in the positive analysis fitting direction relative to DMSO as the negative control and baseline of activity. Using a type of enzyme reporter, loss-of-signal activity can be used to understand changes in the enzymatic activity as they relate to the gene ABL1. Furthermore, this assay endpoint can be referred to as a primary readout, because this assay has produced multiple assay endpoints where this one serves a enzymatic activity function. To generalize the intended target to other relatable targets, this assay endpoint is annotated to the kinase intended target family, where the subfamily is non-receptor tyrosine kinase.
Binding assays used specific radioligands (tritiated, iodinated) with non-radioactive competitive displacement ligands in agonist or antagonist protocols (as indicated) and various reference compounds and inhibitors to titrate specific binding to receptors and transporters. Most enzyme assays (CYPs, kinases, phosphatases, proteases, HDACs) used recombinant protein and specific substrates (fluorescence mostly, some colorimetric and radioactive) and inhibitors, followed by a biochemical separation of substrate and product. All assays for the biochemical HTS were initially run in duplicate at a single concentration (10 uM for CYP450 assays and 25 uM for all others). Assay-chemical combinations meeting a pre-defined threshold (e.g., 30% inhibition and other criteria defined below) were then run in singleton concentration-response format with maximum concentration of 20 uM for CYPs and 50 uM for all others. Each assay was run with positive and negative controls, and concurrent controls on every plate. The follow-up (secondary) screen tested active chemical-pairs in concentration series, as well as a few additional assays not tested in the primary screen, some selected negative inactives, and several cases re-run in the concentration series for confirmatory purposes.

Compound	AC50	outcome
S=C(S)NCCNC(=S)S.[Mn+2].[S-]C([S-])=NCCN=C([S-])[S-].[Zn+2]	inconclusive: 1.36 µM	
S=C([S-])NCCNC(=S)[S-].[Mn+2]	inconclusive: 0.662 µM	
O=C(O)C1(C(=O)Nc2ccc(Cl)cc2Cl)CC1	inconclusive: 17.6 µM	
O=C(Nc1ccc([N+](=O)[O-])cc1Cl)c1cc(Cl)ccc1O		inactive
